Source: PubChem BioAssay AID1508597 (Cure First, 2020)

Purpose: 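Genes whose silencing sensitises or protects ovarian cancer cells against rucaparib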 (primary screen)
Cell system: human ovarian carcinoma lines grown from tumours: OCI-P5x (papillary serous) and OCI-C5x (clear cell)
Reagent: siRNA pool against human genes, 1.25 pmol siRNA per well
Timing: 72 h or 96 h, depending on the cell culture
Conditions: rucaparib 20 µM (about IC30) or vehicle, present until read-out
Read-out: 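Luminescent ATP-based viability assay read 72 or 96 h after transfection, depending on culture, given as normalised percent viability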
Reading the numbers: viability, normalised: higher = more viable cells remaining
Active means: 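a well counts as a hit if its normalised viability is under 80 percent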
Meaning of the calls: active = viability under 80%; inactive = viability 80% or more
In all, the deposit lists about 2,100 reagents; this is a random part of them. 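Calls flag viability under 80% in either arm, not effects specific to rucaparib; the reference for percent is not stated.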 Some reagents were tested in more than one well and are listed for each. No sequences are given here. Not stated in the record: the 100% reference.

| gene knocked down | PubChem SID | rucaparib or vehicle | cell line | technical replicate | viability, normalised (%) | Call |
| --- | --- | --- | --- | --- | --- | --- |
| KDM4A | SID405526933 | Rucaparib | OCI-C5x (clear cell) | 1 | 44.1 | active |
| KDM4A | SID405526933 | Rucaparib | OCI-C5x (clear cell) | 2 | 23.3 | active |
| KDM4A | SID405526933 | Rucaparib | OCI-C5x (clear cell) | 3 | 38.7 | active |
| KDM4A | SID405526933 | Rucaparib | OCI-P5x (serous) | 1 | 42.6 | active |
| KDM4A | SID405526933 | Rucaparib | OCI-P5x (serous) | 2 | 37.8 | active |
| KDM4A | SID405526933 | Rucaparib | OCI-P5x (serous) | 3 | 47.7 | active |
| KDM4A | SID405526933 | Vehicle | OCI-C5x (clear cell) | 1 | 47.5 | active |
| KDM4A | SID405526933 | Vehicle | OCI-C5x (clear cell) | 2 | 44.9 | active |
| KDM4A | SID405526933 | Vehicle | OCI-C5x (clear cell) | 3 | 38.3 | active |
| KDM4A | SID405526933 | Vehicle | OCI-P5x (serous) | 1 | 44.3 | active |
| KDM4A | SID405526933 | Vehicle | OCI-P5x (serous) | 2 | 58 | active |
| KDM4A | SID405526933 | Vehicle | OCI-P5x (serous) | 3 | 62.5 | active |
| CDH2 | SID405528085 | Rucaparib | OCI-C5x (clear cell) | 1 | 92.7 | inactive |
| CDH2 | SID405528085 | Rucaparib | OCI-C5x (clear cell) | 2 | 76 | active |
| CDH2 | SID405528085 | Rucaparib | OCI-C5x (clear cell) | 3 | 51.8 | active |
| CDH2 | SID405528085 | Rucaparib | OCI-P5x (serous) | 1 | 78.1 | active |
| CDH2 | SID405528085 | Rucaparib | OCI-P5x (serous) | 2 | 82.7 | inactive |
| CDH2 | SID405528085 | Rucaparib | OCI-P5x (serous) | 3 | 100 | inactive |
| CDH2 | SID405528085 | Vehicle | OCI-C5x (clear cell) | 1 | 58.4 | active |
| CDH2 | SID405528085 | Vehicle | OCI-C5x (clear cell) | 2 | 57.4 | active |
| CDH2 | SID405528085 | Vehicle | OCI-C5x (clear cell) | 3 | 53.3 | active |
| CDH2 | SID405528085 | Vehicle | OCI-P5x (serous) | 1 | 89.1 | inactive |
| CDH2 | SID405528085 | Vehicle | OCI-P5x (serous) | 2 | 75.2 | active |
| CDH2 | SID405528085 | Vehicle | OCI-P5x (serous) | 3 | 134 | inactive |
| CTSD | SID405526374 | Rucaparib | OCI-C5x (clear cell) | 1 | 41 | active |
| CTSD | SID405526374 | Rucaparib | OCI-C5x (clear cell) | 2 | 44.8 | active |
| CTSD | SID405526374 | Rucaparib | OCI-C5x (clear cell) | 3 | 44.1 | active |
| CTSD | SID405526374 | Rucaparib | OCI-P5x (serous) | 1 | 71.9 | active |
| CTSD | SID405526374 | Rucaparib | OCI-P5x (serous) | 2 | 64.9 | active |
| CTSD | SID405526374 | Rucaparib | OCI-P5x (serous) | 3 | 86.9 | inactive |
| CTSD | SID405526374 | Vehicle | OCI-C5x (clear cell) | 1 | 55.5 | active |
| CTSD | SID405526374 | Vehicle | OCI-C5x (clear cell) | 2 | 48 | active |
| CTSD | SID405526374 | Vehicle | OCI-C5x (clear cell) | 3 | 53 | active |
| CTSD | SID405526374 | Vehicle | OCI-P5x (serous) | 1 | 87.4 | inactive |
| CTSD | SID405526374 | Vehicle | OCI-P5x (serous) | 2 | 69.1 | active |
| CTSD | SID405526374 | Vehicle | OCI-P5x (serous) | 3 | 79.9 | active |
| SPTB | SID405526496 | Rucaparib | OCI-C5x (clear cell) | 1 | 67.7 | active |
| SPTB | SID405526496 | Rucaparib | OCI-C5x (clear cell) | 2 | 49.9 | active |
| SPTB | SID405526496 | Rucaparib | OCI-C5x (clear cell) | 3 | 71.7 | active |
| SPTB | SID405526496 | Rucaparib | OCI-P5x (serous) | 1 | 67.5 | active |
| SPTB | SID405526496 | Rucaparib | OCI-P5x (serous) | 2 | 66.1 | active |
| SPTB | SID405526496 | Rucaparib | OCI-P5x (serous) | 3 | 72.9 | active |
| SPTB | SID405526496 | Vehicle | OCI-C5x (clear cell) | 1 | 43.6 | active |
| SPTB | SID405526496 | Vehicle | OCI-C5x (clear cell) | 2 | 53.2 | active |
| SPTB | SID405526496 | Vehicle | OCI-C5x (clear cell) | 3 | 60 | active |
| SPTB | SID405526496 | Vehicle | OCI-P5x (serous) | 1 | 80.7 | inactive |
| SPTB | SID405526496 | Vehicle | OCI-P5x (serous) | 2 | 74 | active |
| SPTB | SID405526496 | Vehicle | OCI-P5x (serous) | 3 | 118 | inactive |
| TERF1 | SID405526551 | Rucaparib | OCI-C5x (clear cell) | 1 | 42.9 | active |
| TERF1 | SID405526551 | Rucaparib | OCI-C5x (clear cell) | 1 | 35.6 | active |
| TERF1 | SID405526551 | Rucaparib | OCI-C5x (clear cell) | 2 | 44.4 | active |
| TERF1 | SID405526551 | Rucaparib | OCI-C5x (clear cell) | 2 | 35.7 | active |
| TERF1 | SID405526551 | Rucaparib | OCI-C5x (clear cell) | 3 | 50 | active |
| TERF1 | SID405526551 | Rucaparib | OCI-C5x (clear cell) | 3 | 31 | active |
| TERF1 | SID405526551 | Rucaparib | OCI-P5x (serous) | 1 | 66.7 | active |
| TERF1 | SID405526551 | Rucaparib | OCI-P5x (serous) | 1 | 63.2 | active |
| TERF1 | SID405526551 | Rucaparib | OCI-P5x (serous) | 2 | 58.4 | active |
| TERF1 | SID405526551 | Rucaparib | OCI-P5x (serous) | 2 | 80.9 | inactive |
| TERF1 | SID405526551 | Rucaparib | OCI-P5x (serous) | 3 | 52.4 | active |
| TERF1 | SID405526551 | Rucaparib | OCI-P5x (serous) | 3 | 52.7 | active |
| TERF1 | SID405526551 | Vehicle | OCI-C5x (clear cell) | 1 | 36 | active |
| TERF1 | SID405526551 | Vehicle | OCI-C5x (clear cell) | 1 | 48.2 | active |
| TERF1 | SID405526551 | Vehicle | OCI-C5x (clear cell) | 2 | 44.9 | active |
| TERF1 | SID405526551 | Vehicle | OCI-C5x (clear cell) | 2 | 37.1 | active |
| TERF1 | SID405526551 | Vehicle | OCI-C5x (clear cell) | 3 | 40.2 | active |
| TERF1 | SID405526551 | Vehicle | OCI-C5x (clear cell) | 3 | 34 | active |
| TERF1 | SID405526551 | Vehicle | OCI-P5x (serous) | 1 | 51.9 | active |
| TERF1 | SID405526551 | Vehicle | OCI-P5x (serous) | 1 | 49.9 | active |
| TERF1 | SID405526551 | Vehicle | OCI-P5x (serous) | 2 | 60.8 | active |
| TERF1 | SID405526551 | Vehicle | OCI-P5x (serous) | 2 | 47 | active |
| TERF1 | SID405526551 | Vehicle | OCI-P5x (serous) | 3 | 72.5 | active |
| TERF1 | SID405526551 | Vehicle | OCI-P5x (serous) | 3 | 52.2 | active |
| NRBP2 | SID405527802 | Rucaparib | OCI-C5x (clear cell) | 1 | 64.1 | active |
| NRBP2 | SID405527802 | Rucaparib | OCI-C5x (clear cell) | 2 | 59.8 | active |
| NRBP2 | SID405527802 | Rucaparib | OCI-C5x (clear cell) | 3 | 59.1 | active |
| NRBP2 | SID405527802 | Rucaparib | OCI-P5x (serous) | 1 | 54.7 | active |
| NRBP2 | SID405527802 | Rucaparib | OCI-P5x (serous) | 2 | 78.2 | active |
| NRBP2 | SID405527802 | Rucaparib | OCI-P5x (serous) | 3 | 77.2 | active |
| NRBP2 | SID405527802 | Vehicle | OCI-C5x (clear cell) | 1 | 67 | active |
| NRBP2 | SID405527802 | Vehicle | OCI-C5x (clear cell) | 2 | 56.7 | active |
| NRBP2 | SID405527802 | Vehicle | OCI-C5x (clear cell) | 3 | 50.6 | active |
| NRBP2 | SID405527802 | Vehicle | OCI-P5x (serous) | 1 | 74.1 | active |
| NRBP2 | SID405527802 | Vehicle | OCI-P5x (serous) | 2 | 53.7 | active |
| NRBP2 | SID405527802 | Vehicle | OCI-P5x (serous) | 3 | 64.3 | active |

14 entries from above, set out differently.
gene knocked down | PubChem SID | rucaparib or vehicle | cell line | technical replicate | viability, normalised (%) | Call
TERF1 | SID405526551 | Vehicle | OCI-C5x (clear cell) | 3 | 34 | active
TERF1 | SID405526551 | Vehicle | OCI-P5x (serous) | 1 | 51.9 | active
TERF1 | SID405526551 | Vehicle | OCI-P5x (serous) | 1 | 49.9 | active
TERF1 | SID405526551 | Vehicle | OCI-P5x (serous) | 2 | 60.8 | active
TERF1 | SID405526551 | Vehicle | OCI-P5x (serous) | 2 | 47 | active
TERF1 | SID405526551 | Vehicle | OCI-P5x (serous) | 3 | 72.5 | active
TERF1 | SID405526551 | Vehicle | OCI-P5x (serous) | 3 | 52.2 | active
NRBP2 | SID405527802 | Rucaparib | OCI-C5x (clear cell) | 1 | 64.1 | active
NRBP2 | SID405527802 | Rucaparib | OCI-C5x (clear cell) | 2 | 59.8 | active
NRBP2 | SID405527802 | Rucaparib | OCI-C5x (clear cell) | 3 | 59.1 | active
NRBP2 | SID405527802 | Rucaparib | OCI-P5x (serous) | 1 | 54.7 | active
NRBP2 | SID405527802 | Rucaparib | OCI-P5x (serous) | 2 | 78.2 | active
NRBP2 | SID405527802 | Rucaparib | OCI-P5x (serous) | 3 | 77.2 | active
NRBP2 | SID405527802 | Vehicle | OCI-C5x (clear cell) | 1 | 67 | active
